Taken from: PubChem BioAssay AID652272 (Drosophila RNAi Screening Center, 2013)
The deposit covers about 21,000 reagents; below is a random part of those with a known target gene and a result. Of all reagents, 503 (2.4%) got an active call. 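Raw plate light values, not normalised; calls rest on replicate z-scores that were not deposited; hits include reporter decreases as well as increases.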 Unmarked entries are inactive. No sequences are given here. Not given: the amount of reagent, the time to read-out.

Purpose: 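Genes whose knock-down decreases or increases Hedgehog reporter output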 (primary screen)
Cell system: Drosophila clone 8 (Cl8) cells
Reagent: long dsRNA against Drosophila genes
Measured: 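Plate reader light from a firefly reporter under a ptc promoter fragment that responds to Hedgehog, with Renilla light as transfection reference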
Direction: firefly Hh reporter signal: higher = more ptc reporter light; Renilla reference signal: higher = more Renilla control light
Rule for the call: 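Called a hit if the two-replicate mean z-score lies below -2 or above +3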
Meaning of the calls: active = hit: reporter lowered or raised; inactive = not a hit

CG10588 [DRSC11628]
- firefly Hh reporter signal, replicate 1: 1.17e5
- firefly Hh reporter signal, replicate 2: 1.17e5
- Renilla reference signal, replicate 1: 3954
- Renilla reference signal, replicate 2: 3307

Agxt [DRSC18718]
- firefly Hh reporter signal, replicate 1: 73756
- firefly Hh reporter signal, replicate 2: 61830
- Renilla reference signal, replicate 1: 1712
- Renilla reference signal, replicate 2: 1511

RpS2 [DRSC03614]
- firefly Hh reporter signal, replicate 1: 31197 (active)
- firefly Hh reporter signal, replicate 2: 18576
- Renilla reference signal, replicate 1: 2121
- Renilla reference signal, replicate 2: 1813

Jhbp4 [DRSC14222]
- firefly Hh reporter signal, replicate 1: 67253
- firefly Hh reporter signal, replicate 2: 79997
- Renilla reference signal, replicate 1: 1754
- Renilla reference signal, replicate 2: 5237

CG1113 [DRSC12163]
- firefly Hh reporter signal, replicate 1: 68256
- firefly Hh reporter signal, replicate 2: 91819
- Renilla reference signal, replicate 1: 2690
- Renilla reference signal, replicate 2: 2513

Fum1 [DRSC18344]
- firefly Hh reporter signal, replicate 1: 1.38e5
- firefly Hh reporter signal, replicate 2: 1.15e5
- Renilla reference signal, replicate 1: 2906
- Renilla reference signal, replicate 2: 2379

Sid [DRSC16588]
- firefly Hh reporter signal, replicate 1: 1.00e5
- firefly Hh reporter signal, replicate 2: 95944
- Renilla reference signal, replicate 1: 3500
- Renilla reference signal, replicate 2: 2640

CG32204 [DRSC09574]
- firefly Hh reporter signal, replicate 1: 2.07e5
- Renilla reference signal, replicate 1: 3948

CG11382 [DRSC18624]
- firefly Hh reporter signal, replicate 1: 77229
- firefly Hh reporter signal, replicate 2: 1.85e5
- Renilla reference signal, replicate 1: 2356
- Renilla reference signal, replicate 2: 7312

kuk [DRSC15730]
- firefly Hh reporter signal, replicate 1: 1.45e5
- firefly Hh reporter signal, replicate 2: 1.03e5
- Renilla reference signal, replicate 1: 5956
- Renilla reference signal, replicate 2: 4544

lds [DRSC16988]
- firefly Hh reporter signal, replicate 1: 91381
- firefly Hh reporter signal, replicate 2: 86732
- Renilla reference signal, replicate 1: 3384
- Renilla reference signal, replicate 2: 5035

JYalpha [DRSC17224]
- firefly Hh reporter signal, replicate 1: 73281
- firefly Hh reporter signal, replicate 2: 1.95e5
- Renilla reference signal, replicate 1: 2241
- Renilla reference signal, replicate 2: 8242

Sesn [DRSC04101]
- firefly Hh reporter signal, replicate 1: 1.31e5
- firefly Hh reporter signal, replicate 2: 83638
- Renilla reference signal, replicate 1: 5556
- Renilla reference signal, replicate 2: 3152

Sesn [DRSC04102]
- firefly Hh reporter signal, replicate 1: 97047
- firefly Hh reporter signal, replicate 2: 57430
- Renilla reference signal, replicate 1: 1696
- Renilla reference signal, replicate 2: 4841

Sesn [DRSC04103]
- firefly Hh reporter signal, replicate 1: 1.27e5
- firefly Hh reporter signal, replicate 2: 1.35e5
- Renilla reference signal, replicate 1: 3056
- Renilla reference signal, replicate 2: 8768

alphaTry [DRSC07577]
- firefly Hh reporter signal, replicate 1: 1.04e5
- firefly Hh reporter signal, replicate 2: 75544
- Renilla reference signal, replicate 1: 2609
- Renilla reference signal, replicate 2: 5346

CG9498 [DRSC03235]
- firefly Hh reporter signal, replicate 1: 1.21e5
- firefly Hh reporter signal, replicate 2: 38864
- Renilla reference signal, replicate 1: 2640
- Renilla reference signal, replicate 2: 3296

dsf [DRSC03524]
- firefly Hh reporter signal, replicate 1: 1.48e5
- firefly Hh reporter signal, replicate 2: 38829
- Renilla reference signal, replicate 1: 2904
- Renilla reference signal, replicate 2: 2464

D [DRSC11132]
- firefly Hh reporter signal, replicate 1: 71912
- Renilla reference signal, replicate 1: 3281
- Renilla reference signal, replicate 2: 2080

pths [DRSC03171]
- firefly Hh reporter signal, replicate 1: 55539
- firefly Hh reporter signal, replicate 2: 32114
- Renilla reference signal, replicate 1: 2121
- Renilla reference signal, replicate 2: 3673

Dsp1 [DRSC20315]
- firefly Hh reporter signal, replicate 1: 47914
- firefly Hh reporter signal, replicate 2: 11046
- Renilla reference signal, replicate 1: 2924
- Renilla reference signal, replicate 2: 458

CG31360 [DRSC13255]
- firefly Hh reporter signal, replicate 1: 44361
- firefly Hh reporter signal, replicate 2: 2.11e5
- Renilla reference signal, replicate 1: 10555
- Renilla reference signal, replicate 2: 5312

IntS12 [DRSC15818]
- firefly Hh reporter signal, replicate 1: 80665
- firefly Hh reporter signal, replicate 2: 1.06e5
- Renilla reference signal, replicate 1: 2928
- Renilla reference signal, replicate 2: 3346

Ku80 [DRSC02699]
- firefly Hh reporter signal, replicate 1: 84515
- firefly Hh reporter signal, replicate 2: 56698
- Renilla reference signal, replicate 1: 2496
- Renilla reference signal, replicate 2: 5370

FMRFa [DRSC07428]
- firefly Hh reporter signal, replicate 1: 96132
- firefly Hh reporter signal, replicate 2: 52098
- Renilla reference signal, replicate 1: 2256
- Renilla reference signal, replicate 2: 4579

CG13838 [DRSC14688]
- firefly Hh reporter signal, replicate 1: 7.83e5
- firefly Hh reporter signal, replicate 2: 6.66e5
- firefly Hh reporter signal, replicate 3: 1.28e5
- Renilla reference signal, replicate 1: 35952
- Renilla reference signal, replicate 2: 3369

CG15498 [DRSC15040]
- firefly Hh reporter signal, replicate 1: 7.69e5
- firefly Hh reporter signal, replicate 2: 1.56e5
- Renilla reference signal, replicate 1: 41979
- Renilla reference signal, replicate 2: 3031

No new results follow: entries from further up.
CG11382 [DRSC18624]
- firefly Hh reporter signal, replicate 1: 77229
- firefly Hh reporter signal, replicate 2: 1.85e5
- Renilla reference signal, replicate 1: 2356
- Renilla reference signal, replicate 2: 7312

kuk [DRSC15730]
- firefly Hh reporter signal, replicate 1: 1.45e5
- firefly Hh reporter signal, replicate 2: 1.03e5
- Renilla reference signal, replicate 1: 5956
- Renilla reference signal, replicate 2: 4544
